Data taken from PubChem BioAssay AID485314 (National Center for Advancing Translational Sciences (NCATS), 2010).
The campaign covered roughly 340,000 compounds. About 4,500 (1.3%) were called active. The shares of active, inactive and inconclusive entries below differ from those in the screen. The call rests on the fitted dose curve; in most records, active means well fitted inhibition curve with a large enough effect; inconclusive means small, poorly fitted or top-dose-only effect, or another doubt; inactive means no such curve, though single readings can be large or run the other way. A potency beside an inconclusive call is a rough fit, not a confirmed value.

Biological target: DNA polymerase beta (Homo sapiens) (UniProt P06746)
Test: qHTS Assay for Inhibitors of DNA Polymerase Beta
Settings: Pol beta primer extension/strand displacement, fluorescence kinetic; activity change, negative = inhibition: at 114 µM (top of the series)
Method in brief: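 Pol beta (10 nM) was preincubated with compound for 15 min at room temperature. The reaction was then started with 50 nM substrate and read immediately and after a further 10 min at room temperature.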
On the % scale 0 is the no-effect control and ±100 the full control effect; potency means the concentration at half of the fitted maximal effect.

SMILES | activity change, negative = inhibition | Potency
CC(=O)Nc1ccc2c(c1)nc(CCN1CCN(c3ccccn3)CC1)n2C | inactive: 16.1% | 
C/C=C/c1ccc(OCC(=O)OCC(=O)NC2CC2)c(OC)c1 |  | inconclusive: 89.1 µM [inhibitor, single point]
CCOc1ccc(N(CC(=O)NCc2ccccc2)C(=O)CCC(=O)Nc2nccs2)cc1 |  | inconclusive: 0.141 µM [inhibitor, full curve, poor fit]
Cc1ccc(C)n1-c1ccc(C(=O)O)cc1 |  | active: 3.16 µM
Cc1ccc(C)c(CSc2nc3ccncc3n2CC(=O)Nc2ccc(C)c(C)c2)c1 |  | inconclusive: 89.1 µM [inhibitor, single point]
COc1ccc(/C=N/NC(=O)c2cc(-c3ccc(C)cc3C)nc3ccccc23)cc1COC(C)=O |  | inconclusive: 1.12 µM [inhibitor, full curve, poor fit]
Nc1nonc1C(=Nc1ccc(Br)cc1)NO |  | inconclusive: 0.631 µM [inhibitor, full curve, poor fit]
O=C(/C=C/c1cccs1)Nc1ccc(S(=O)(=O)Nc2ncccn2)cc1 |  | inconclusive: 14.1 µM [inhibitor, single point]
CNC(=O)c1cc(S(=O)(=O)Nc2ccc3c(c2)OCCO3)ccc1C | inactive: 23.8% | 
CCOc1cc(C2C(C(=O)OC)=C(C)NC3=C2C(=O)c2ccccc23)ccc1OC (stereo not drawn) |  | inconclusive: 44.7 µM [inhibitor, partial curve]
Cc1nonc1NC(=O)CSc1nc2ccccc2[nH]1 |  | inconclusive: 20 µM [inhibitor, single point]
CCOC(=O)C1=C(C)S/C(=C\N(C)C)C1=O |  | inconclusive: 31.6 µM [inhibitor, single point]
CCC(=O)N1CCc2cc(S(=O)(=O)CCC(=O)NCCC3=CCCCC3)ccc21 |  | inconclusive: 4.47 µM [inhibitor, full curve, poor fit]
CCOc1ccccc1CNC(=O)CCc1c(C)nn(-c2ccc(N3CCCCC3)nn2)c1C | inactive: 20.3% | 
Cc1cnc(NC(=O)c2cc3c(s2)CCCC3)s1 |  | inconclusive: 0.708 µM [inhibitor, partial curve, poor fit]
CCOc1ccc(NS(=O)(=O)c2ccc3[nH]cc(C(=O)N(CC)CC)c(=O)c3c2)cc1 | inactive: 7.08% | 
CCN(CC)CCN1C(=O)C(=O)/C(=C(/O)c2ccc3c(c2)CC(C)O3)C1c1ccc(OC)cc1 (stereo not drawn) |  | inconclusive: 50.1 µM [inhibitor, single point]
Cc1ccc(-n2nc3c(N4CCC(C(=O)NCc5ccc(C)o5)CC4)nnc(C)c3c2C)cc1 |  | active: 0.398 µM
CCCCNC(=O)Nc1ccccc1CC |  | inconclusive: 89.1 µM [inhibitor, single point]
Cc1cc(C)cc(NC(=O)c2cccc(NC(=O)C3C4CC5OC(=O)C3C5C4)c2)c1 (stereo not drawn) |  | inconclusive: 89.1 µM [inhibitor, single point]
O=C(NC1CCCCC1)C(c1ccc(O)c(O)c1)N(C(=O)Cn1nnc2ccccc21)c1cccc(O)c1 (stereo not drawn) |  | inconclusive: 25.1 µM [inhibitor, full curve]
CCN(CC)CCCNc1ncnc2ccccc12 | inactive: 1.88% | 

SMILES | activity change, negative = inhibition | Potency
COc1ccc(N=C2SC(C(N)=O)CC(=O)N2CCc2ccc(OC)c(OC)c2)cc1 (stereo not drawn) |  | inconclusive: 39.8 µM [inhibitor, full curve]
COc1ccc(CNC(=O)c2cc3cc4ccc(C)cc4nc3o2)cc1 | inactive: -1.54% | 
CCOC(=O)c1c(NC(=O)COc2ncnc3sccc23)sc2c1CCC2 |  | inconclusive: 11.2 µM [inhibitor, full curve, poor fit]
CC(=O)Nc1c2c(nn1-c1ccc(F)cc1)CSC2 | inactive: 0.866% | 
CCc1ccc(C(=O)COC(=O)C(Cc2c[nH]c3ccccc23)NC(=O)c2ccc(CC)cc2)cc1 (stereo not drawn) | inactive: -8.38% | 
Cc1ccc(NC(=O)CSc2nnc(-c3nnn(-c4ccc(F)cc4)c3C)o2)cc1Br |  | inconclusive: 4.47 µM [inhibitor, full curve]
CCn1c(SC)nnc1-c1nn(-c2ccccc2)ccc1=O |  | inconclusive: 35.5 µM [inhibitor, full curve, poor fit]
C=CCn1c(SCC(=O)c2ccccc2)nnc1-c1cc2ccccc2o1 |  | inconclusive: 0.282 µM [inhibitor, full curve, poor fit]
COc1cccc(CNC(=O)CSc2nnc3c(n2)[nH]c2ccc(OC)cc23)c1 | inactive: -26.9% | 
Clc1cc2nc3ccccn3c2cc1Cl |  | inconclusive: 50.1 µM [inhibitor, partial curve, poor fit]
CCOc1cc(N2CCOCC2)c(OCC)cc1NC(=O)c1oc2ccccc2c1C | inactive: 51.3% | 
Cc1cnc(C(=O)N2CCCC(C(=O)c3ccc(C(F)(F)F)cc3)C2)cn1 (stereo not drawn) |  | active: 14.1 µM
O=C(Cc1ccccc1)Nc1cccc(N2CCCC2)c1 |  | inconclusive: 2.51 µM [inhibitor, partial curve]
Cc1ccc(SCC(=O)O/N=C(\N)c2cccc([N+](=O)[O-])c2)cc1 |  | inconclusive: 89.1 µM [inhibitor, single point]
CCc1ccccc1NS(=O)(=O)c1ccc2[nH]cc(C(=O)NC3CCCC3)c(=O)c2c1 |  | inconclusive: 22.4 µM [inhibitor, full curve]
O=S(=O)(NCc1ccco1)c1ccc2c(c1)Cc1ccccc1-2 |  | inconclusive: 3.98 µM [inhibitor, partial curve, poor fit]
CCCCOc1ccc(-c2nc(=S)[nH][nH]2)cc1 |  | inconclusive: 0.126 µM [inhibitor, full curve, poor fit]
COc1cc(-c2[nH]nc3c2C(c2ccoc2)C(C#N)=C(N)O3)cc(OC)c1OC (stereo not drawn) |  | active: 17.8 µM
O=C(N=C1SC2CS(=O)(=O)CC2N1c1ccccc1F)C1CCCCC1 (stereo not drawn) |  | inconclusive: 0.141 µM [inhibitor, full curve, poor fit]
O=C(Cc1ccc(Cl)cc1)Nc1cccc(S(=O)(=O)Nc2ccccc2F)c1 |  | inconclusive: 89.1 µM [inhibitor, single point]
O=C1CC(c2ccco2)Cc2c1cnn2-c1nc2ccccc2s1 (stereo not drawn) |  | inconclusive: 89.1 µM [inhibitor, single point]

Given comma-delimited: part of the list above.
SMILES,"activity change, negative = inhibition",Potency
CCc1ccccc1NS(=O)(=O)c1ccc2[nH]cc(C(=O)NC3CCCC3)c(=O)c2c1,,"inconclusive: 22.4 µM [inhibitor, full curve]"
O=S(=O)(NCc1ccco1)c1ccc2c(c1)Cc1ccccc1-2,,"inconclusive: 3.98 µM [inhibitor, partial curve, poor fit]"
CCCCOc1ccc(-c2nc(=S)[nH][nH]2)cc1,,"inconclusive: 0.126 µM [inhibitor, full curve, poor fit]"
